# Screen size: about 3,000 compounds; about 45 (2%) showed an effect of 50% or more. Some of the results follow.
# Test system: MOLM1 and UCSD/AML1 (averaged)
# Experiment: cell viability relative to DMSO control (POC); higher = less growth inhibition
# Conditions: 1 µM; 72 h
# Experimental: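 Primary viability screen in the 3q26 EVI1-high AML cell lines MOLM1 and UCSD/AML1, compounds at 1 uM for 72 h. ATP CellTiter-Glo read-out given as percent viable over DMSO control (POC), averaged over duplicates. This mapping covers the TimTec NDL-3000 natural derivative library, whose compounds are identified by TimTec catalogue codes (ST...).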
row,Structure (SMILES),cell viability [%]
1,CCCCOc1ccccc1-n1c(-c2cccc(OC)c2)cn2c3c(=O)n(C)c(=O)n(C)c3nc12,84.6
2,O=C(CN1CCc2ccccc2C1)Nc1cc(C(F)(F)F)cc(C(F)(F)F)c1,96.2
3,CCOC(=O)CNC(=O)c1ccccc1Cl,97.7
4,CCn1cc(C(=O)O)c(=O)c2cnc(N3CCNCC3)nc21,111
5,Cc1[nH]c2ccccc2c1CCNC(=O)c1ccc(C(F)(F)F)cc1,86.2
6,COc1cc2nc(N3CCN(C(=O)c4ccco4)CC3)nc(N)c2cc1OC,109
7,OC1(c2cc(-c3ccc(F)cc3)no2)CCC2COC1O2 (stereo not given),109
8,CCOc1ccc2oc(=O)cc(Cn3c(=O)c4c(C(=O)OC)cc(C)nc4n(C)c3=O)c2c1,110
9,COC(=O)C1=C(C)N(C)C(=O)NC1c1cc(Br)c(O)c(OC)c1 (stereo not given),116
10,O=c1cc(-c2ccccc2Br)oc2ccc(Cl)cc12,110
11,COc1ccc(C2NC(C(=O)O)Cc3c2[nH]c2ccccc32)cc1CSc1nnc(-c2ccccc2)o1 (stereo not given),89.9
12,CCn1c(SCC(=O)Nc2ccc(F)cc2F)nc2c(=O)[nH]cnc21,94.6
13,COc1cc(C=O)ccc1OC(C)C,102
14,COC(=O)C1=C(N)Oc2c(oc(CO)cc2=O)C1c1c(F)cccc1Cl (stereo not given),107
15,COc1ccc(C(=O)Nc2cccc(C(=O)c3ccncc3)c2)cc1OC,101
16,O=C(CSc1nc2ccccc2c(=O)[nH]1)NCc1ccccc1,105
17,Cc1ccc(C(=O)Nc2ccccc2C(=O)NC(Cc2c[nH]c3ccccc23)C(=O)O)cc1 (stereo not given),102
18,CCOC(=O)CNC(=O)c1ccc(OC(C)=O)cc1,101
19,COc1ccc(C(=O)c2sc(Nc3ccc(F)cc3)nc2N)cc1OC,101
20,CCOC(=O)N1CCc2[nH]c3ccc(Cl)cc3c2C1,89.6
21,CCCOc1ccc(C2NC(C(=O)O)Cc3c2[nH]c2ccccc32)cc1OC (stereo not given),98
22,CCc1ccc(NC(=O)C2=Cc3ccccc3OC2)cc1,90.1

# Some of the entries so far, with tabs.
row	Structure (SMILES)	cell viability [%]
5	Cc1[nH]c2ccccc2c1CCNC(=O)c1ccc(C(F)(F)F)cc1	86.2
6	COc1cc2nc(N3CCN(C(=O)c4ccco4)CC3)nc(N)c2cc1OC	109
7	OC1(c2cc(-c3ccc(F)cc3)no2)CCC2COC1O2 (stereo not given)	109

# Remaining list, next part

row,Structure (SMILES),cell viability [%]
1,COc1cc(C2C(C(=O)c3ccc(C)o3)=C(O)C(=O)N2Cc2ccccc2)ccc1O (stereo not given),105
2,CCOc1cc(C2Nc3ccccc3NC3=C2C(=O)CC(c2cccs2)C3)cc(Br)c1O (stereo not given),99
3,COc1ccc(C(=O)c2sc(Nc3cccc(F)c3)nc2N)cc1OC,96.9
4,NC1=C(C(=O)OCc2ccccc2)C(c2cccnc2)c2oc(CO)cc(=O)c2O1 (stereo not given),118
5,O=C(O)CNC(=O)c1ccccc1I,115
6,COc1ccc2[nH]c(C)c(CCNC(=O)c3cc(OC)c(OC)c(OC)c3)c2c1,99.4
7,CC(=O)OC1CCC2(C)C(C1)CC(OC(C)=O)C1C2CC(OC(C)=O)C2(C)C(C(C)CCC(=O)O)CCC12 (stereo not given),91.5
8,Cn1c(=O)c2c(nc(Cl)n2Cc2ccccc2F)n(C)c1=O,101
9,COc1cc(C(=O)Nc2ccc(-n3nc(C)cc3Cl)cc2)cc(OC)c1OC,97.5
10,COc1cc2c(cc1OC)C(=O)N(C)C(=O)C2=O,108
11,Cc1ccc(-n2c(SCc3nc(-c4ccc(Cl)cc4)oc3C)nc3c(=O)[nH]cnc32)cc1,106
12,COc1cc(-c2nnc(SCC(N)=O)n2-c2ccc3c(c2)OCO3)cc(OC)c1OC,112
13,O=C(NNC(=O)c1cc2cc(Br)ccc2oc1=O)c1ccccc1I,94.3
14,COC(=O)C1=C(C)NC2=C(C(=O)CCC2)C1c1cc(Br)c(O)c(OC)c1 (stereo not given),120
15,COc1cc(Br)c(CCn2c(N)c(Br)c(=O)[nH]c2=O)cc1OC,95
16,O=C(O)/C=C/c1c(Cl)cccc1Cl,94.6
17,O=C(Nc1ccc2oc(-c3ccccc3Cl)nc2c1)c1ccc2c(c1)OCCO2,91.6
18,Cc1cc(C)c2c(CN3CCC(N4CCCCC4)CC3)cc(=O)oc2c1,99.9
19,CCOc1ccc2oc(=O)cc(CN3CCN(Cc4cc(C=O)ccc4OC)CC3)c2c1,94.5
20,CN(CC(=O)O)S(=O)(=O)c1ccc2oc3ccccc3c2c1,108
21,COc1ccc(C(=O)CC2(O)C(=O)Nc3ccccc32)cc1OC (stereo not given),104
22,COc1ccc(Nc2nc(N)c(C(=O)c3ccc(OC)c(OC)c3)s2)cc1,15.4

row,Structure (SMILES),cell viability [%]
1,Cc1nc2c(nc(SCc3nc(-c4cccc(Br)c4)oc3C)n2C)c(=O)[nH]1,96.5
2,COc1cc(OC)c(N=C2C(=O)N(CN3CCc4ccccc4C3)c3ccccc32)cc1Cl,93.6
3,Cn1c(=O)c([N+](=O)[O-])c(Cl)c2ccccc21,68.4
4,Cn1c(NC(=O)CSc2nnc(-c3ccco3)o2)cc(=O)n(C)c1=O,104
5,CCOC(=O)Cc1ccc(NCCC(=O)c2cc3ccccc3oc2=O)cc1,112
6,COC(=O)CC(CC(=O)OC)c1ccc(OC)c(OC)c1,102
7,CC(=O)N(CCc1c(C)[nH]c2ccccc12)C(C(=O)Nc1c(C)cccc1C)c1ccc(Cl)cc1 (stereo not given),96.6
8,NC(CCCCCC(=O)O)CCCCC(=O)O (stereo not given),104
9,COc1ccccc1NC(=O)CSc1nc2c(=O)[nH]cnc2n1-c1ccc(C)cc1,99.1
10,Cc1ccc(NC(=O)Cn2c(=O)cc(C(=O)NCc3ccccc3)c3ccccc32)cc1C,102
11,COC(=O)C1=C(C)NC2=C(C(=O)CCC2)C1c1cc(Cl)c(O)c(OC)c1 (stereo not given),112
12,COc1ccc(OC)c(NC(=O)CSc2nc3c(=O)[nH]cnc3n2C)c1,123
13,COc1ccc(C2c3[nH]c4ccccc4c3CCN2CC(=O)Nc2ccc(C)cc2)cc1 (stereo not given),87.2
14,CCn1c(=O)c([N+](=O)[O-])c(N2CCC(C)CC2)c2ccccc21,100
15,CCc1ccc(OCCNc2c([N+](=O)[O-])c(=O)oc3ccccc23)cc1,97.2
16,COC(=O)C(Cc1c[nH]c2ccccc12)NC(=O)CN1CCC2(O)CCCCC2C1c1ccc(O)c(OC)c1 (stereo not given),103
17,CC(C)CC(NC(=O)C(Cc1ccccc1)NC(=O)C1CCCN1C(=O)OCc1ccccc1)C(=O)OC(C)(C)C (stereo not given),89.5
18,COc1cc(C2C3CCCCC3(O)CCN2CC(=O)Nc2ccc(Cl)cc2)cc(OC)c1OC (stereo not given),102
19,CC(=O)OC1CCC2(C)C(CCC3(C)C2C(=O)C=C2C4CC(C)(C(=O)NCc5ccccc5)CCC4(C)CCC23C)C1(C)C (stereo not given),82.6
20,COc1ccc(-c2c(C)c3cc(O)ccc3oc2=O)cc1OC,101
21,CC(=O)Oc1cc(OC(C)=O)c2c(c1CC=C(C)C)O[C@H](c1ccccc1)CC2=O,88.2

# From the supplement of paper PMC11150407
